The record followed here is paper PMC5996148.

Among the test systems are TPD52L1 (human); TPI1 (human); TPK1 (human); TPM1 (human); TPM2 (human); TPM3 (human); TPM4 (human); TPMT (human); TPO (human); TPP1 (human); TPT1 (human); TRA16 (human); TRAF2 (human); TRAPPC3 (human); TRAPPC4 (human); TRBV5-4 (human); TRDN (human); TRH (human).
Experiment in all cases: protein microarray (ProtoArray v5.0), streptavidin-Alexa Fluor 647
What all share (settings): 3'-biotin; 20 mM Tris (pH 7.5), 5 mM MgCl2, 100 mM KCl, 0.1% Tween-20, A/T-rich and random oligonucleotide blockers; temperature not stated; high values mean tight binding

In assay [1] the test system is TOM1-like protein 2 (human).
The target in the next assay is T1, TREX1 (UniProt Q9NSU2).
T1 sequence: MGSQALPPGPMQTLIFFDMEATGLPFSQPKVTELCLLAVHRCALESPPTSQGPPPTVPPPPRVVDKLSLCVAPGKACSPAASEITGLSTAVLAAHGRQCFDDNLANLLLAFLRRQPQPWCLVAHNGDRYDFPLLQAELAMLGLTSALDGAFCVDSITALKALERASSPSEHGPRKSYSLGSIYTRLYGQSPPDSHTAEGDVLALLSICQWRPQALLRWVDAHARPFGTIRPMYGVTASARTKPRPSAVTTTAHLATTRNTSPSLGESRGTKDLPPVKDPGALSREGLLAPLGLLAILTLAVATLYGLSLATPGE

Several values for one entry are separate records, joined by “and”; a condition that tells them apart may be missing. Equal entries are not always repeated. This is one part of the list. For some assays here: Construct or isoform of the protein are uncertain.

As to “GGGAGGCTGAGGCAGG [G4-1 biotinylated (PQS2)]”, the binding signal in [1] is -0.366 z-score; in the assay on TPD52L1 (human) it was -0.265 z-score; with TPI1 (human), -0.308 z-score; with TPK1 (human), -0.279 z-score; with TPM1 (human) it was -0.334 z-score; in the assay on TPM2 (human), -0.283 z-score. The binding signal was -0.356 z-score and -0.343 z-score in the assay with TPM3 (human); -0.343 z-score in the assay on TPM4 (human); -0.305 z-score in the assay with TPMT (human); -0.3 z-score in the assay on TPO (human); -0.324 z-score with TPP1 (human); -0.351 z-score in the assay on TPT1 (human). Moreover, the binding signal is -0.334 z-score in the assay on TRA16 (human); -0.304 z-score in the assay on TRAF2 (human); -0.336 z-score in the assay on TRAPPC3 (human); -0.311 z-score in the assay on TRAPPC4 (human); -0.33 z-score with TRBV5-4 (human); -0.322 z-score with TRDN (human). The figures for the binding signal with TREX1 and in the assay on TRH (human) were -0.261 z-score and -0.333 z-score, respectively.
